Assay results reported in article PMC5381383.
No constants are given. Whether binding was seen depends on the method and setting. In cells and extracts the contact can be indirect. Some entries that bind do so weakly or less than the wild type.

Chains of the proteins cited; added tags and fusions are not shown. Residues count along the entry.
UniProt P04150: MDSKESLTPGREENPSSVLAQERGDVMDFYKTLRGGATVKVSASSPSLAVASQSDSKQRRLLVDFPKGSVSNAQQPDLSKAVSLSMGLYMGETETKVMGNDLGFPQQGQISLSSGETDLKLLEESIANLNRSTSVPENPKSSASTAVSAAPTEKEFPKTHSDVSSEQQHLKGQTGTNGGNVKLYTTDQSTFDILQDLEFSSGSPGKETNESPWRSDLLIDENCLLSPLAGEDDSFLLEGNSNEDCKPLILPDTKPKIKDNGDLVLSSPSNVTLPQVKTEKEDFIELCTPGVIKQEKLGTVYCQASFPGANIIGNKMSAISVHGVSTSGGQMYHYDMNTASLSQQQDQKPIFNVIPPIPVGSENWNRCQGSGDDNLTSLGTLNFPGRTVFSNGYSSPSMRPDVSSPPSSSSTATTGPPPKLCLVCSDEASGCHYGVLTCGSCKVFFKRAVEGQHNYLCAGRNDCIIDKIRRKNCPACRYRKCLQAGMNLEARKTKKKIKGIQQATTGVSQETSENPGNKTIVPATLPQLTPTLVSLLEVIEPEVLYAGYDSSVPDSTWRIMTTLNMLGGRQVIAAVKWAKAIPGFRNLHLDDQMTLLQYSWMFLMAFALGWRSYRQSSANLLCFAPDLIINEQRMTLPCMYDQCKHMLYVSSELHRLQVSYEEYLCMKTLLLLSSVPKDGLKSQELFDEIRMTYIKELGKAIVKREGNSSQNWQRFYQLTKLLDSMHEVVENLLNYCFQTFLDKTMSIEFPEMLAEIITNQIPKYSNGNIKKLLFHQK
UniProt P35869, residues 11-848: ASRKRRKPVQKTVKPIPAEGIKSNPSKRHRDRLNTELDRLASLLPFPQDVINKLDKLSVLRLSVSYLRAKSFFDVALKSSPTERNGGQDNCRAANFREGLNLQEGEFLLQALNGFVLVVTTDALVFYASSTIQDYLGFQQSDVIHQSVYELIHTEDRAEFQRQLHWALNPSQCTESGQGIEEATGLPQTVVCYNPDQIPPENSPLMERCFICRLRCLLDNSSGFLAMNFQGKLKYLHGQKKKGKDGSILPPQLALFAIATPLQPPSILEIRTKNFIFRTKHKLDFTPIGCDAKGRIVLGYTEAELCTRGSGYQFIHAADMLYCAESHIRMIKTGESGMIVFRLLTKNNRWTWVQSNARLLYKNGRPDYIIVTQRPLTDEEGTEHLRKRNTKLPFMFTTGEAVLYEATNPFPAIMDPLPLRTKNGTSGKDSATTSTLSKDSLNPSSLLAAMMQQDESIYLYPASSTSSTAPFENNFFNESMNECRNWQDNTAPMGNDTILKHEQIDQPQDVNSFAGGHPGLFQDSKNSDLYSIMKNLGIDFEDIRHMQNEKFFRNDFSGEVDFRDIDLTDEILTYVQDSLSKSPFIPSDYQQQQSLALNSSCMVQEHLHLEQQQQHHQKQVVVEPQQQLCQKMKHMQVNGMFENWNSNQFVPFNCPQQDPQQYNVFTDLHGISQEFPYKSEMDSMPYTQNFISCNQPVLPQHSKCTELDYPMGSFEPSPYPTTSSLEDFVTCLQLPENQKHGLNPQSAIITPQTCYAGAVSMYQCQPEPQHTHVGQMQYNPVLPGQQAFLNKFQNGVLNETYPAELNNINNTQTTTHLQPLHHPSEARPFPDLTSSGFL

Target: Glucocorticoid receptor (human) (UniProt P04150)
Test: co-IP; lysates (RIPA buffer) of ARPE-19 cells transfected with GR expression plasmid, 72 h; precipitated with anti-GR antibody or normal mouse IgG, blotted with anti-AHR or anti-GR antibody; cells untreated or treated with TCDD (30 nM), Dex (100 nM) or TCDD + Dex for 30 min

binding: binds weakly
Substance: aryl hydrocarbon receptor (from UniProt P35869 11-848)
